Where two headings read alike, the source gives them in different places. No constants are given. Whether binding was seen depends on the method and setting. Binding seen in cells or lysates may run through a third protein. Some results given as binding are weak or reduced against the parent protein; the word gives no strength. Sequences can lack the tags named with a protein.

Protein sequences, listed by entry. Tags and fused reporters are not part of them.
UniProt Q9UQ84: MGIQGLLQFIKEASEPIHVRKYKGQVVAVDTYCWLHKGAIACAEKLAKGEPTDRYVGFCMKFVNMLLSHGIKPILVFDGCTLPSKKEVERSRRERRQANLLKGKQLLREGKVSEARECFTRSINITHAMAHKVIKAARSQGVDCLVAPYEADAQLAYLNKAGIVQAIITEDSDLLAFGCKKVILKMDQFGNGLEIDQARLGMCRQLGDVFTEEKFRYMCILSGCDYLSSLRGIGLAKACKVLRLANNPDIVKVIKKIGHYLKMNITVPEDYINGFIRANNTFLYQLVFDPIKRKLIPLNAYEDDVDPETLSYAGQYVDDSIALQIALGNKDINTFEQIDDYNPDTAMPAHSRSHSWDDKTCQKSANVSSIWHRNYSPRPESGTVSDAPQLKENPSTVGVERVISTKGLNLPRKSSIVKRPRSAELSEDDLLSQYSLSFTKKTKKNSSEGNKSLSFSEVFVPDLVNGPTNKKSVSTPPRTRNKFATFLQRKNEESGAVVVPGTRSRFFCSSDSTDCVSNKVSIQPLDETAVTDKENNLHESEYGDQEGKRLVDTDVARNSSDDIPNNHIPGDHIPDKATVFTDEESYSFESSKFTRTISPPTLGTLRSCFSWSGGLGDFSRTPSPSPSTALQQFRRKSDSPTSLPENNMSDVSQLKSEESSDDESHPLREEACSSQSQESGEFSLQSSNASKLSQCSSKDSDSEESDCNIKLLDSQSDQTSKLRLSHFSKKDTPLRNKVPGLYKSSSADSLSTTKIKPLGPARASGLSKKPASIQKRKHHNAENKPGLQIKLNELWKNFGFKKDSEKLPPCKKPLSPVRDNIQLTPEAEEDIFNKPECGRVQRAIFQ
UniProt P63208: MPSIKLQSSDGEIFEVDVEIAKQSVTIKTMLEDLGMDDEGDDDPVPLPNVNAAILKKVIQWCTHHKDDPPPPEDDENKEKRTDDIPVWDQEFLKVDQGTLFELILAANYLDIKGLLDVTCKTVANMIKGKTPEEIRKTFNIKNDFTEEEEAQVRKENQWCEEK

From article doi:10.1101/2023.10.26.562393 come the findings set out here.

Assay [1] has as its target T1, GFP-cyclin F wild type (UniProt P41002).
T1 sequence: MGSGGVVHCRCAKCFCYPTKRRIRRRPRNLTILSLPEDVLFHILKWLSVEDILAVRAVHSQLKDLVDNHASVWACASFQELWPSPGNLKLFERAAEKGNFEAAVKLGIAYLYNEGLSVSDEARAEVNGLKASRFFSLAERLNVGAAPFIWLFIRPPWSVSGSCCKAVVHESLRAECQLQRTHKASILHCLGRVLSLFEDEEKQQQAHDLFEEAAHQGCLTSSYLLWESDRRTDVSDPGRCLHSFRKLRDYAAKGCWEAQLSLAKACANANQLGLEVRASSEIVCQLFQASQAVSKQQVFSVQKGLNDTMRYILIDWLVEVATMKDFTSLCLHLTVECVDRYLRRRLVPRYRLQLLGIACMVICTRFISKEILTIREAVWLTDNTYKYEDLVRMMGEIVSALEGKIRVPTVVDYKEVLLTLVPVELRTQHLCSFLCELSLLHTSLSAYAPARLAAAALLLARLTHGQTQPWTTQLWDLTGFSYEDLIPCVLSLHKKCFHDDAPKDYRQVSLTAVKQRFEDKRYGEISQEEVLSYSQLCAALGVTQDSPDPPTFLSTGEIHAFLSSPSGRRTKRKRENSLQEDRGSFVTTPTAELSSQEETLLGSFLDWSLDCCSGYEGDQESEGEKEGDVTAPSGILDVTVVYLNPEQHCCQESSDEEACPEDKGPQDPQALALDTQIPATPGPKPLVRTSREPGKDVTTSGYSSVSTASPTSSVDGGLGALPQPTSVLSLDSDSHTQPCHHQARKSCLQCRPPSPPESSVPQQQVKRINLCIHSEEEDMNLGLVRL
Briefly: co-IP.

For assay [2], the target named is T1, GFP-cyclin F wild type. Briefly: co-IP. This is another data set of the same source.
Assay [3] concerns the target T2, biotin-tagged EXO1 peptide encompassing the last 15 amino acid residues.
T2 sequence (peptide, biotin (biotin-tagged; end not stated)): FNKPECGRVQRAIFQ
In words: pull-down.

The next assay addresses Flag-EXO1 (UniProt Q9UQ84). In words: co-IP.

For the molecule “SKP1 (HEK293T) (from UniProt P63208 1-163)”, the binding entry with GFP-cyclin F wild type [1] is given as “binds”.
As for “endogenous EXO1 (HEK293T) (from UniProt Q9UQ84 1-846)”, the binding result with GFP-cyclin F wild type [1] is “binds”.

B1: RRM2 (HEK293T) (protein, UniProt P31350 1-389)
chain: MLSLRVPLAPITDPQQLQLSPLKGLSLVDKENTPPALSGTRVLASKTARRIFQEPTEPKTKAAAPGVEDEPLLRENPRRFVIFPIEYHDIWQMYKKAEASFWTAEEVDLSKDIQHWESLKPEERYFISHVLAFFAASDGIVNENLVERFSQEVQITEARCFYGFQIAMENIHSEMYSLLIDTYIKDPKEREFLFNAIETMPCVKKKADWALRWIGDKEATYGERVVAFAAVEGIFFSGSFASIFWLKKRGLMPGLTFSNELISRDEGLHCDFACLMFKHLVHKPSEERVREIIINAVRIEQEFLTEALPVKLIGMNCTLMKQYIEFVADRLMLELGFSKVFRVENPFDFMENISLEGKTNFFEKRVGEYQRMGVMSSPTENSFTLDADF
Turning to B1, the binding entry with GFP-cyclin F wild type [2] is given as “binds”.

B2: NEK9 (HEK293T) (protein, UniProt Q8TD19 1-979)
chain: MSVLGEYERHCDSINSDFGSESGGCGDSSPGPSASQGPRAGGGAAEQEELHYIPIRVLGRGAFGEATLYRRTEDDSLVVWKEVDLTRLSEKERRDALNEIVILALLQHDNIIAYYNHFMDNTTLLIELEYCNGGNLYDKILRQKDKLFEEEMVVWYLFQIVSAVSCIHKAGILHRDIKTLNIFLTKANLIKLGDYGLAKKLNSEYSMAETLVGTPYYMSPELCQGVKYNFKSDIWAVGCVIFELLTLKRTFDATNPLNLCVKIVQGIRAMEVDSSQYSLELIQMVHSCLDQDPEQRPTADELLDRPLLRKRRREMEEKVTLLNAPTKRPRSSTVTEAPIAVVTSRTSEVYVWGGGKSTPQKLDVIKSGCSARQVCAGNTHFAVVTVEKELYTWVNMQGGTKLHGQLGHGDKASYRQPKHVEKLQGKAIRQVSCGDDFTVCVTDEGQLYAFGSDYYGCMGVDKVAGPEVLEPMQLNFFLSNPVEQVSCGDNHVVVLTRNKEVYSWGCGEYGRLGLDSEEDYYTPQKVDVPKALIIVAVQCGCDGTFLLTQSGKVLACGLNEFNKLGLNQCMSGIINHEAYHEVPYTTSFTLAKQLSFYKIRTIAPGKTHTAAIDERGRLLTFGCNKCGQLGVGNYKKRLGINLLGGPLGGKQVIRVSCGDEFTIAATDDNHIFAWGNGGNGRLAMTPTERPHGSDICTSWPRPIFGSLHHVPDLSCRGWHTILIVEKVLNSKTIRSNSSGLSIGTVFQSSSPGGGGGGGGGEEEDSQQESETPDPSGGFRGTMEADRGMEGLISPTEAMGNSNGASSSCPGWLRKELENAEFIPMPDSPSPLSAAFSESEKDTLPYEELQGLKVASEAPLEHKPQVEASSPRLNPAVTCAGKGTPLTPPACACSSLQVEVERLQGLVLKCLAEQQKLQQENLQIFTQLQKLNKKLEGGQQVGMHSKGTQTAKEEMEMDPKPDLDSDSWCLLGTDSCRPSL
As to B2, the binding entry with GFP-cyclin F wild type [2] is given as “binds”.

B3: cyclin F from cell lysates (peptide pull-down) (protein, UniProt P41002 1-786)
chain: MGSGGVVHCRCAKCFCYPTKRRIRRRPRNLTILSLPEDVLFHILKWLSVEDILAVRAVHSQLKDLVDNHASVWACASFQELWPSPGNLKLFERAAEKGNFEAAVKLGIAYLYNEGLSVSDEARAEVNGLKASRFFSLAERLNVGAAPFIWLFIRPPWSVSGSCCKAVVHESLRAECQLQRTHKASILHCLGRVLSLFEDEEKQQQAHDLFEEAAHQGCLTSSYLLWESDRRTDVSDPGRCLHSFRKLRDYAAKGCWEAQLSLAKACANANQLGLEVRASSEIVCQLFQASQAVSKQQVFSVQKGLNDTMRYILIDWLVEVATMKDFTSLCLHLTVECVDRYLRRRLVPRYRLQLLGIACMVICTRFISKEILTIREAVWLTDNTYKYEDLVRMMGEIVSALEGKIRVPTVVDYKEVLLTLVPVELRTQHLCSFLCELSLLHTSLSAYAPARLAAAALLLARLTHGQTQPWTTQLWDLTGFSYEDLIPCVLSLHKKCFHDDAPKDYRQVSLTAVKQRFEDKRYGEISQEEVLSYSQLCAALGVTQDSPDPPTFLSTGEIHAFLSSPSGRRTKRKRENSLQEDRGSFVTTPTAELSSQEETLLGSFLDWSLDCCSGYEGDQESEGEKEGDVTAPSGILDVTVVYLNPEQHCCQESSDEEACPEDKGPQDPQALALDTQIPATPGPKPLVRTSREPGKDVTTSGYSSVSTASPTSSVDGGLGALPQPTSVLSLDSDSHTQPCHHQARKSCLQCRPPSPPESSVPQQQVKRINLCIHSEEEDMNLGLVRL
For B3, the binding entry in assay [3] is given as “binds”.

B4: GFP-cyclin F wild type (protein, UniProt P41002 1-786)
chain: MGSGGVVHCRCAKCFCYPTKRRIRRRPRNLTILSLPEDVLFHILKWLSVEDILAVRAVHSQLKDLVDNHASVWACASFQELWPSPGNLKLFERAAEKGNFEAAVKLGIAYLYNEGLSVSDEARAEVNGLKASRFFSLAERLNVGAAPFIWLFIRPPWSVSGSCCKAVVHESLRAECQLQRTHKASILHCLGRVLSLFEDEEKQQQAHDLFEEAAHQGCLTSSYLLWESDRRTDVSDPGRCLHSFRKLRDYAAKGCWEAQLSLAKACANANQLGLEVRASSEIVCQLFQASQAVSKQQVFSVQKGLNDTMRYILIDWLVEVATMKDFTSLCLHLTVECVDRYLRRRLVPRYRLQLLGIACMVICTRFISKEILTIREAVWLTDNTYKYEDLVRMMGEIVSALEGKIRVPTVVDYKEVLLTLVPVELRTQHLCSFLCELSLLHTSLSAYAPARLAAAALLLARLTHGQTQPWTTQLWDLTGFSYEDLIPCVLSLHKKCFHDDAPKDYRQVSLTAVKQRFEDKRYGEISQEEVLSYSQLCAALGVTQDSPDPPTFLSTGEIHAFLSSPSGRRTKRKRENSLQEDRGSFVTTPTAELSSQEETLLGSFLDWSLDCCSGYEGDQESEGEKEGDVTAPSGILDVTVVYLNPEQHCCQESSDEEACPEDKGPQDPQALALDTQIPATPGPKPLVRTSREPGKDVTTSGYSSVSTASPTSSVDGGLGALPQPTSVLSLDSDSHTQPCHHQARKSCLQCRPPSPPESSVPQQQVKRINLCIHSEEEDMNLGLVRL
B4: in the assay with Flag-EXO1, the binding result is “binds”.

B5: GFP-cyclin F M309A (protein, UniProt P41002 1-786)
chain: MGSGGVVHCRCAKCFCYPTKRRIRRRPRNLTILSLPEDVLFHILKWLSVEDILAVRAVHSQLKDLVDNHASVWACASFQELWPSPGNLKLFERAAEKGNFEAAVKLGIAYLYNEGLSVSDEARAEVNGLKASRFFSLAERLNVGAAPFIWLFIRPPWSVSGSCCKAVVHESLRAECQLQRTHKASILHCLGRVLSLFEDEEKQQQAHDLFEEAAHQGCLTSSYLLWESDRRTDVSDPGRCLHSFRKLRDYAAKGCWEAQLSLAKACANANQLGLEVRASSEIVCQLFQASQAVSKQQVFSVQKGLNDTARYILIDWLVEVATMKDFTSLCLHLTVECVDRYLRRRLVPRYRLQLLGIACMVICTRFISKEILTIREAVWLTDNTYKYEDLVRMMGEIVSALEGKIRVPTVVDYKEVLLTLVPVELRTQHLCSFLCELSLLHTSLSAYAPARLAAAALLLARLTHGQTQPWTTQLWDLTGFSYEDLIPCVLSLHKKCFHDDAPKDYRQVSLTAVKQRFEDKRYGEISQEEVLSYSQLCAALGVTQDSPDPPTFLSTGEIHAFLSSPSGRRTKRKRENSLQEDRGSFVTTPTAELSSQEETLLGSFLDWSLDCCSGYEGDQESEGEKEGDVTAPSGILDVTVVYLNPEQHCCQESSDEEACPEDKGPQDPQALALDTQIPATPGPKPLVRTSREPGKDVTTSGYSSVSTASPTSSVDGGLGALPQPTSVLSLDSDSHTQPCHHQARKSCLQCRPPSPPESSVPQQQVKRINLCIHSEEEDMNLGLVRL
B5: the binding entry with Flag-EXO1 is “no binding”.
